Drawing on doi:10.1101/681833, this text covers binding for 3 molecules.

Protein sequences, listed by entry. Tags and fused reporters are not part of them.
UniProt P35573: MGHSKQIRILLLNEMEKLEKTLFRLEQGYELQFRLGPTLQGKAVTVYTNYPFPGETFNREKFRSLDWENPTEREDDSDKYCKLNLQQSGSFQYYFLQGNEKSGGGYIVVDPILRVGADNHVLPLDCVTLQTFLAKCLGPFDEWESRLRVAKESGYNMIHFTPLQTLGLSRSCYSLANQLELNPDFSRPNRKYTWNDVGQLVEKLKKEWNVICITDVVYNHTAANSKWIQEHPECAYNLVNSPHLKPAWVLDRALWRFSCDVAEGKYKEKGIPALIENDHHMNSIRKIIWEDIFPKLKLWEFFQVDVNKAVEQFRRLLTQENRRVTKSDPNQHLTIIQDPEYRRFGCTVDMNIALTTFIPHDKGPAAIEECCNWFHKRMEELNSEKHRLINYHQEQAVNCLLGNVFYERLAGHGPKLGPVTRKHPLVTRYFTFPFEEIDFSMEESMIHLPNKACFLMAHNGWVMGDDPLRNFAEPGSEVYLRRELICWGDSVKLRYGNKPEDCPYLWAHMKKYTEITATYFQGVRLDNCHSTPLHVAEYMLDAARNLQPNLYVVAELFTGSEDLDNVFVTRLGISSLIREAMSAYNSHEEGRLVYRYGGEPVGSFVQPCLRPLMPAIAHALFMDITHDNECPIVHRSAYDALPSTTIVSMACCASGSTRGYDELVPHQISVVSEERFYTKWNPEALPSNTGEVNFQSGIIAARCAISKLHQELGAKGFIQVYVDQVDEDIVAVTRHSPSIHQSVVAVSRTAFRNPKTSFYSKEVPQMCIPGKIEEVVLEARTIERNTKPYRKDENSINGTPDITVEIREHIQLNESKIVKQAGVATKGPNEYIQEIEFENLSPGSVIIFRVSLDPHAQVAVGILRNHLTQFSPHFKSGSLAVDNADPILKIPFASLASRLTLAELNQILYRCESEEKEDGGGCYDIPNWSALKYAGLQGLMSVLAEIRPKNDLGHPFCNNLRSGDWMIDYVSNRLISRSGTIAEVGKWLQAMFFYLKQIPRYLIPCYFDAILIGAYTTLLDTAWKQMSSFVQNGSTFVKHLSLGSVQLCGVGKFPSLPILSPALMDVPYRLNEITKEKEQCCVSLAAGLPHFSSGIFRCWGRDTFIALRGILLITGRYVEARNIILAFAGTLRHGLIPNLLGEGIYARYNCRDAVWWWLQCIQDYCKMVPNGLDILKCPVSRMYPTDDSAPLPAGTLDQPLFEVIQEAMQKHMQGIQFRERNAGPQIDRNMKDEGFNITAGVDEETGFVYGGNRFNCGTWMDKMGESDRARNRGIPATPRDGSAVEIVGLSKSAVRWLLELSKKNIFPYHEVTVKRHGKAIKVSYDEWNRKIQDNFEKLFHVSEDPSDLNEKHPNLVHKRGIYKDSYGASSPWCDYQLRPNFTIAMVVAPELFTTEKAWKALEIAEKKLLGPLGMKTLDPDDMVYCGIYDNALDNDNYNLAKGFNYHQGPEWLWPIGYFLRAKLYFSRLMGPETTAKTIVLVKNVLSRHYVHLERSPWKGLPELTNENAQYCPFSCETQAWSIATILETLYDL

The target in the assay is T1, malin (purified recombinant) (UniProt Q6VVB1).
T1 sequence: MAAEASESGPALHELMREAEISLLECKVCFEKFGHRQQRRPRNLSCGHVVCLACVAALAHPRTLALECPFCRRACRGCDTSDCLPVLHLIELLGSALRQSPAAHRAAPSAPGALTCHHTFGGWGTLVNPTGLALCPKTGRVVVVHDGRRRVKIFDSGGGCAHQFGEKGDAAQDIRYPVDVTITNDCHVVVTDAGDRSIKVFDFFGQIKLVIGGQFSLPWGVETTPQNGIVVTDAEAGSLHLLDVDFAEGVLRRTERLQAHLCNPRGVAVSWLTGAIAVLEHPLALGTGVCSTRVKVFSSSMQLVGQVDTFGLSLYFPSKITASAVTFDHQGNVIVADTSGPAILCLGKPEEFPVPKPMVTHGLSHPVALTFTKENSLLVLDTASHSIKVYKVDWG
In words: affinity purification with mass spectrometry.

These are yes or no findings as the source states them, for the method shown. Binding seen in cells or lysates may run through a third protein. These calls come from enrichment with a bait or labelling near it, and not all partners need be listed.

Take “glycogen debranching enzyme (from cell extract) (from UniProt P35573 1-1532)”: the binding result was “binds”.

B1: laforin (from cell extract) (enzyme, UniProt O95278 1-331)
chain: MRFRFGVVVPPAVAGARPELLVVGSRPELGRWEPRGAVRLRPAGTAAGDGALALQEPGLWLGEVELAAEEAAQDGAEPGRVDTFWYKFLKREPGGELSWEGNGPHHDRCCTYNENNLVDGVYCLPIGHWIEATGHTNEMKHTTDFYFNIAGHQAMHYSRILPNIWLGSCPRQVEHVTIKLKHELGITAVMNFQTEWDIVQNSSGCNRYPEPMTPDTMIKLYREEGLAYIWMPTPDMSTEGRVQMLPQAVCLLHALLEKGHIVYVHCNAGVGRSTAAVCGWLQYVMGWNLRKVQYFLMAKRPAVYIDEEALARAQEDFFQKFGKVRSSVCSL
As to B1, the binding entry is “binds”.

B2: glycogen branching enzyme (from cell extract) (enzyme, UniProt Q04446 1-702)
chain: MAAPMTPAARPEDYEAALNAALADVPELARLLEIDPYLKPYAVDFQRRYKQFSQILKNIGENEGGIDKFSRGYESFGVHRCADGGLYCKEWAPGAEGVFLTGDFNGWNPFSYPYKKLDYGKWELYIPPKQNKSVLVPHGSKLKVVITSKSGEILYRISPWAKYVVREGDNVNYDWIHWDPEHSYEFKHSRPKKPRSLRIYESHVGISSHEGKVASYKHFTCNVLPRIKGLGYNCIQLMAIMEHAYYASFGYQITSFFAASSRYGTPEELQELVDTAHSMGIIVLLDVVHSHASKNSADGLNMFDGTDSCYFHSGPRGTHDLWDSRLFAYSSWEILRFLLSNIRWWLEEYRFDGFRFDGVTSMLYHHHGVGQGFSGDYSEYFGLQVDEDALTYLMLANHLVHTLCPDSITIAEDVSGMPALCSPISQGGGGFDYRLAMAIPDKWIQLLKEFKDEDWNMGDIVYTLTNRRYLEKCIAYAESHDQALVGDKSLAFWLMDAEMYTNMSVLTPFTPVIDRGIQLHKMIRLITHGLGGEGYLNFMGNEFGHPEWLDFPRKGNNESYHYARRQFHLTDDDLLRYKFLNNFDRDMNRLEERYGWLAAPQAYVSEKHEGNKIIAFERAGLLFIFNFHPSKSYTDYRVGTALPGKFKIVLDSDAAEYGGHQRLDHSTDFFSEAFEHNGRPYSLLVYIPSRVALILQNVDLPN
On to B2, for which the binding entry was “binds”.
